Some entries share one result that the patent states for a list of compounds.
Biological target: T1, α-synuclein fibrils (Homo sapiens, UniProt P37840)
T1 construct: GST (N, cleaved yes); made in house; host or cells: E. coli BL21
Test: Congo red binding assay of aged α-synuclein
Format: biochemical
Details: all tested concentrations; fibril control shifts from 490 to 508 nm
Description: CR is a dye with high affinity for amyloid fibrils. Congo red (20 μM) was prepared in PBS (pH 7.4) and filtered through a 0.45 μm filter. Samples of α-synuclein (5 μM), aged alone or with the compounds at different molar ratios, were mixed with Congo red (final concentration 5 μM), and the reaction samples were thoroughly mixed. The UV absorbance spectrum was recorded between 400 and 600 nm in a spectrophotometer (DU-800, Beckman-Coulter) using 10-mm quartz cuvettes (HellmaAnalytics-Germany). Congo red alone was used as blank.

## O=C(/C=C/c1ccc(O)c2c1[C@H](C(=O)O[C@H](Cc1ccc(O)c(O)c1)C(=O)O)[C@@H](c1ccc(O)c(O)c1)O2)O[C@H](Cc1ccc(O)c(O)c1)C(=O)O [salvianolic acid B]
  absorption maximum of Congo red bound to α-synuclein samples: ≤ 495 nm

Reference: patent US10488417B2, “Compounds for use as imaging agents” (United Arab Emirates University, priority 2014, dated 2019)
